Measurements published in paper PMC6118821.
No constants are given. Whether binding was seen depends on the method and setting.

Amino acid sequences for entries named in this document (tags omitted). A change or cut given only in a name is not applied to a line headed by its entry. Chains listed by the source or under a name are the forms on record and can include a tag or linker.
ScChd1(1-1305Δ57–88) (P32657, form named): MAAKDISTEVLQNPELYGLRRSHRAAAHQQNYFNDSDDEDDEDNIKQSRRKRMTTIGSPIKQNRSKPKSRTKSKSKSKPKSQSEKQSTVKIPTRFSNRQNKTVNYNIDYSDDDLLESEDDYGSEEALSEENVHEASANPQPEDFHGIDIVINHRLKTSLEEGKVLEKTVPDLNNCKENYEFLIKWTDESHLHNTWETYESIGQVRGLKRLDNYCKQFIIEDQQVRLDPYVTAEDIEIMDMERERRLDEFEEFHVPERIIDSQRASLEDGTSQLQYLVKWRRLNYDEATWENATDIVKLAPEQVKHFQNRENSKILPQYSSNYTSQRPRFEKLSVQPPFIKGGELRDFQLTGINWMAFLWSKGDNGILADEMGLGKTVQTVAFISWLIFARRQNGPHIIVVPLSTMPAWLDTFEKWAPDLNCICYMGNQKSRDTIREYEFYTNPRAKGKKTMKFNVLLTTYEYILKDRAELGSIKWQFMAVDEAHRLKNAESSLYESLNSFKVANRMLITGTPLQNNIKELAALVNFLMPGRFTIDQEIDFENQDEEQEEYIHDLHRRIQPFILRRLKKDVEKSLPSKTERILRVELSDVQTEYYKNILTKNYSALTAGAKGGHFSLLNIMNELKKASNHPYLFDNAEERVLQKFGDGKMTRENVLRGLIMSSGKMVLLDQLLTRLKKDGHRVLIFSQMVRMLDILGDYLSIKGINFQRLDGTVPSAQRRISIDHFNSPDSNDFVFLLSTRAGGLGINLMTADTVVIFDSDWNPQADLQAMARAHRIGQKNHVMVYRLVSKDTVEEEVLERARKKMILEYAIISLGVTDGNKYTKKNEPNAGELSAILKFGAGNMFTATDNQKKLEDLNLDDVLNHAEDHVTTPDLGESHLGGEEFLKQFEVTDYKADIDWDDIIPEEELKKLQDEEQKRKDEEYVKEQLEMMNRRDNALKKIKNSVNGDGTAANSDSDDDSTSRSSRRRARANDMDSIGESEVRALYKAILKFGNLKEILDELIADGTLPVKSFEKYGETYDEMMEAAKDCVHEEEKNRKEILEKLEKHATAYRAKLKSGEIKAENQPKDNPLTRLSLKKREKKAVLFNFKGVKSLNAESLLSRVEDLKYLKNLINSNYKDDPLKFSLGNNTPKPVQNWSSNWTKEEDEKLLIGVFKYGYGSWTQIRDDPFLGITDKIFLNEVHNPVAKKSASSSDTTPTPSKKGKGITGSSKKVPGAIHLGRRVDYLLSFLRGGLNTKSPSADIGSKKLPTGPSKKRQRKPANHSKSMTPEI

Molecular target: ScChd1(1-1305Δ57–88) (S. cerevisiae) (UniProt P32657)
Assay: cryo-EM structure; 2:1 complex of ScChd1(1-1305Δ57–88) and a nucleosome with symmetrical 14 bp linkers, ADP-BeFx; envelope at 10-11 Å, two Chd1 and a nucleosome rigid-body docked; both purified

binding: no binding
Substance: ScChd1(1-1305Δ57–88) (from UniProt P32657 1-1305) (enzyme)
